PubChem BioAssay AID1159578 | Peter MacCallum Cancer Centre – 2015
Screen: 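siRNA pools altering how lymphatic endothelial cells close a scratch wound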 (primary screen). Cells: human lymphatic endothelial cells. Knock-down reagent: siRNA pool against human genes, 40 nM. Duration: 48 h after transfection. Read-out: 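Cells stained with dye and imaged after a scratch; covered wound area and nuclei counted, duplicates averaged, migration set against mock wells and turned into a robust z-score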. Scale: migration robust z-score: higher = faster migration into the scratch; nuclei per well: higher = more cells in the well. Active means: 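Pools averaging fewer than 3300 nuclei are never called; remaining pools count as changed when migration robust z lies outside -2 to 2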. Meaning of the calls: active = migration changed; inactive = no migration change, or too few cells.
This is an unselected part of about 18,000 deposited reagents. About 1,030 of them (5.7%) were called active. 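Inactive calls also include pools with fewer than 3300 nuclei, whose migration was not assessed.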 Raw values vary from plate to plate and are shown uncorrected. Entries without a mark were called inactive. Not all columns of the deposit are shown.

Against GALNT10 (polypeptide N-acetylgalactosaminyltransferase 10), the entry reads migration robust z-score -0.18; migration class with cell-count check migration z between -2 and 2; enough cells; nuclei per well, duplicate mean 5336. CLDN17 (claudin 17) gave migration robust z-score 1.75; migration class with cell-count check migration z between -2 and 2; enough cells; nuclei per well, duplicate mean 6599. BRWD3 (bromodomain and WD repeat domain containing 3) showed migration robust z-score -1.78; migration class with cell-count check migration z between -2 and 2; enough cells; nuclei per well, duplicate mean 5914. Silencing of CHIC1 (cysteine rich hydrophobic domain 1) resulted in: migration robust z-score -0.22; migration class with cell-count check migration z between -2 and 2; enough cells; nuclei per well, duplicate mean 6422. After knock-down of RRP15 (ribosomal RNA processing 15 homolog), the record shows migration robust z-score -0.3; migration class with cell-count check migration z between -2 and 2; enough cells; nuclei per well, duplicate mean 6032. After knock-down of TMEM232 (transmembrane protein 232) the results were migration robust z-score 1.54; migration class with cell-count check migration z between -2 and 2; enough cells; nuclei per well, duplicate mean 6084.

CEP164 (centrosomal protein 164) showed migration robust z-score 1.17; migration class with cell-count check migration z between -2 and 2; enough cells; nuclei per well, duplicate mean 6285. With knock-down of CAMTA2 (calmodulin binding transcription activator 2), the record shows migration robust z-score 2.1 (active); migration class with cell-count check migration z above 2; enough cells; nuclei per well, duplicate mean 5814. Depletion of TMEM186 (transmembrane protein 186) resulted in: migration robust z-score 0.48; migration class with cell-count check migration z between -2 and 2; enough cells; nuclei per well, duplicate mean 6250. Depletion of APOBEC2 (apolipoprotein B mRNA editing enzyme catalytic subunit 2) resulted in: migration robust z-score -0.1; migration class with cell-count check migration z between -2 and 2; enough cells; nuclei per well, duplicate mean 6548. LOC155060 (AI894139 pseudogene) gave migration robust z-score -0.04; migration class with cell-count check migration z between -2 and 2; enough cells; nuclei per well, duplicate mean 5731. RNF113A (ring finger protein 113A) gave migration robust z-score -0.44; migration class with cell-count check migration z between -2 and 2; enough cells; nuclei per well, duplicate mean 6043.

Depletion of PEBP1 (phosphatidylethanolamine binding protein 1) resulted in: migration robust z-score -0.74; migration class with cell-count check migration z between -2 and 2; enough cells; nuclei per well, duplicate mean 5968. With knock-down of FBXW4 (F-box and WD repeat domain containing 4), the screen gave migration robust z-score 0.73; migration class with cell-count check migration z between -2 and 2; enough cells; nuclei per well, duplicate mean 4943. DDO (D-aspartate oxidase) gave migration robust z-score 0.29; migration class with cell-count check migration z between -2 and 2; enough cells; nuclei per well, duplicate mean 5588. Knock-down of PON1 (paraoxonase 1) gave: migration robust z-score -0.18; migration class with cell-count check migration z between -2 and 2; enough cells; nuclei per well, duplicate mean 5546. Against EMILIN2 (elastin microfibril interfacer 2) the deposit lists migration robust z-score -1.2; migration class with cell-count check migration z between -2 and 2; enough cells; nuclei per well, duplicate mean 5388. With knock-down of SH2D3A (SH2 domain containing 3A), the screen gave migration robust z-score 0.42; migration class with cell-count check migration z between -2 and 2; enough cells; nuclei per well, duplicate mean 5386.

After knock-down of CAPN2 (calpain 2), the record shows migration robust z-score -1.33; migration class with cell-count check migration z between -2 and 2; enough cells; nuclei per well, duplicate mean 5442. Depletion of PMF1 (polyamine modulated factor 1) resulted in: migration robust z-score -0.9; migration class with cell-count check migration z between -2 and 2; enough cells; nuclei per well, duplicate mean 6078. Against NIT2 (nitrilase family member 2), the values are migration robust z-score -1.79; migration class with cell-count check migration z between -2 and 2; enough cells; nuclei per well, duplicate mean 4069. After knock-down of FUOM (fucose mutarotase), the screen gave migration robust z-score -1.48; migration class with cell-count check migration z between -2 and 2; enough cells; nuclei per well, duplicate mean 5256. Depletion of RAB33B (RAB33B, member RAS oncogene family) resulted in: migration robust z-score -0.29; migration class with cell-count check migration z between -2 and 2; enough cells; nuclei per well, duplicate mean 5994. PTCD1 (pentatricopeptide repeat domain 1) showed migration robust z-score -0.58; migration class with cell-count check migration z between -2 and 2; enough cells; nuclei per well, duplicate mean 6106.

TRAF3IP3 (TRAF3 interacting protein 3) scored migration robust z-score -0.44; migration class with cell-count check migration z between -2 and 2; enough cells; nuclei per well, duplicate mean 6213. Knock-down of SLC4A5 gave: migration robust z-score -1.19; migration class with cell-count check migration z between -2 and 2; enough cells; nuclei per well, duplicate mean 6232. Knock-down of OR51D1 (olfactory receptor family 51 subfamily D member 1) resulted in: migration robust z-score -0.89; migration class with cell-count check migration z between -2 and 2; enough cells; nuclei per well, duplicate mean 5485.
